According to PMC9373288:
These are yes or no findings as the source states them, for the method shown. In cells and extracts the contact can be indirect.

By UniProt entry, the sequences of proteins in these tests, tags left out. Where a name states a change or a piece, a line headed by the entry shows the natural chain unless it says otherwise. Residues count along the entry.
UniProt P17676: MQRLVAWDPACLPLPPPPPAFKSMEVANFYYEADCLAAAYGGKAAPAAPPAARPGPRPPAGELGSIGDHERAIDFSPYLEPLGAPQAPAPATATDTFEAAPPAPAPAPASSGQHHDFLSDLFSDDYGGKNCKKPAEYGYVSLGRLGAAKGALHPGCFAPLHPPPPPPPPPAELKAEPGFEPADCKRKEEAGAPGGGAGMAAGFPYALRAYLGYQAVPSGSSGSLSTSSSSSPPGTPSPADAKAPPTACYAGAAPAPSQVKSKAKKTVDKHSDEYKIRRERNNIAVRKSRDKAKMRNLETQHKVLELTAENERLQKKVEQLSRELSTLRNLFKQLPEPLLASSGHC
C/EBP-β LAP isoform, overexpressed in NCI-H2228 cells: residues 24-345 of P17676
C/EBP-β LIP isoform, overexpressed in NCI-H2228 cells: residues 199-345 of P17676
UniProt Q16665: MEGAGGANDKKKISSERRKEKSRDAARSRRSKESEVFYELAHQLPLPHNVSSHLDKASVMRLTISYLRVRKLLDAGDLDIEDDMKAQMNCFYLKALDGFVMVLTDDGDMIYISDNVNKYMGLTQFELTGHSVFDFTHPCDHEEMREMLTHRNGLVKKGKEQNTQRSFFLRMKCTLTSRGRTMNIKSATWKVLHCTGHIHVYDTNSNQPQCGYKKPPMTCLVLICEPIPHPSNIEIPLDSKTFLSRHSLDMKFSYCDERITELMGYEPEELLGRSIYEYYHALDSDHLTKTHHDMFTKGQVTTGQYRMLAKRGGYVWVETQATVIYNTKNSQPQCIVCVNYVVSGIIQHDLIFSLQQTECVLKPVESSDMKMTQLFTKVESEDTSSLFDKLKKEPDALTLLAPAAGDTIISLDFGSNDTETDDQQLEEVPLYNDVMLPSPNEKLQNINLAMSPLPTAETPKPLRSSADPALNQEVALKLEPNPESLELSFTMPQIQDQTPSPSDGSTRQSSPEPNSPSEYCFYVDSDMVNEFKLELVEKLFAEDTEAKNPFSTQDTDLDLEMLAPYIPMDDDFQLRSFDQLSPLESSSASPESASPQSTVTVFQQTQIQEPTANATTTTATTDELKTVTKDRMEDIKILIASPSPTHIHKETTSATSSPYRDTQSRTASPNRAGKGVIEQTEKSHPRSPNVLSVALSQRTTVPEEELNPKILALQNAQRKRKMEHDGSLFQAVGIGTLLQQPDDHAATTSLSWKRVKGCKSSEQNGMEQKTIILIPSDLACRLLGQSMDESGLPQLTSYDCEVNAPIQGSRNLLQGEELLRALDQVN

What was measured:
Test in all cases: co-IP; 100 μg whole cell lysate of NCI-H2228 cells (wild-type, LAP+ or LIP+) immunoprecipitated overnight at 4 °C with anti-C/EBP-β (clone C-19, 1/50) and Protein A/G magnetic beads, blotted for HIF-1α; normoxic cells by the legend, hypoxic cells by the text
[1] = biological target: CCAAT/Enhancer Binding Protein-β (C/EBP-β), endogenous in wild-type NCI-H2228 cells (human (endogenous in NCI-H2228)) (UniProt P17676)
[2] = biological target: C/EBP-β LIP isoform, overexpressed in NCI-H2228 cells (UniProt P17676)
[3] = biological target: C/EBP-β LAP isoform, overexpressed in NCI-H2228 cells (UniProt P17676)

Measured: binding

Hypoxia-inducible factor-1α (HIF-1α) (from UniProt Q16665 1-826)
no binding: all assays above
